Experimental data: PubChem BioAssay AID1259281 (Sanger Institute, 2017)
Assay: 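Find knock-downs that kill colorectal cancer cells alone or strengthen targeted drugs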 (primary screen). Cells: human COLO678 colorectal cancer cell line. Knock-down reagent: siRNA pool against human genes. Conditions: anchor drugs at fixed doses: BYL719 1 µM, cetuximab 5 µg/ml or trametinib 10 nM; DMSO vehicle for the siRNA-alone arm. Read-out: 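Cell viability compared with non-targeting pool wells, averaged over replicates; knock-down-alone effect also as robust z-score; synergy scores set knock-down plus drug against expected joint effect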. Reading the numbers: robust z-score, siRNA alone: higher = more viable cells; strongly negative means essential; viability, siRNA alone: higher = more surviving cells; synergy score with BYL719 and synergy score with trametinib and synergy score with cetuximab: higher = stronger synergistic killing with drug. Active means: 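Called essential (knock-down alone) if knock-down by itself drops cell number to a robust z-score under -3; all others no change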. Meaning of the calls: active = essential (knock-down alone); inactive = no change.
Here is an unselected part of 794 reagents. In the full data, 22 (2.8%) are marked active. 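Calls rest on knock-down alone only; drug synergy scores play no part in them.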 Entries without a mark were called inactive. No viability above 1 is reported: the scale is capped. The record does not give: the amount of reagent, the time to read-out.

| Gene | robust z-score, siRNA alone | viability, siRNA alone (fraction of control) | synergy score with BYL719 | synergy score with trametinib | synergy score with cetuximab |
| --- | --- | --- | --- | --- | --- |
| MED12 (GeneID 9968) | 0.473 | 1 | 0.174 | 0.0279 | 0.0189 |
| MAPK1 (GeneID 5594) | -1.26 | 0.945 | 0.138 | 0.0525 | 0.0373 |
| PRKACG (GeneID 5568) | 0.473 | 1 | -0.0919 | -0.0348 | -0.0681 |
| MARK1 (GeneID 4139) | -0.692 | 0.963 | 0.0611 | -0.0609 | -0.00926 |
| RBM10 (GeneID 8241) | 0.473 | 1 | 0.101 | -0.0538 | 0.0705 |
| MAP4K3 (GeneID 8491) | -1.18 | 0.947 | -0.14 | -0.0308 | -0.0967 |
| CHKA (GeneID 1119) | -3.03 (active) | 0.889 | 0.167 | 0.0322 | 0.0401 |
| PANK1 (GeneID 53354) | 0.473 | 1 | -0.0919 | 0.00639 | -0.0681 |
| MVK (GeneID 4598) | 0.466 | 1 | -0.0193 | -0.00902 | -0.0383 |
| EFNA5 (GeneID 1946) | 0.473 | 1 | -0.0919 | 0.0378 | 0.0137 |
| MAPKAPK3 (GeneID 7867) | 0.473 | 1 | -0.0919 | 0.0383 | 0.0571 |
| SPHK1 (GeneID 8877) | 0.473 | 1 | -0.0299 | 0.0792 | 0.0499 |
| UHMK1 (GeneID 127933) | -0.324 | 0.975 | -0.115 | -0.0103 | -0.023 |
| PFKP (GeneID 5214) | 0.473 | 1 | -0.0223 | 0.0203 | 0.0174 |
| TLK1 (GeneID 9874) | 0.473 | 1 | 0.0613 | 0.0392 | 0.0375 |
| PCBP1 (GeneID 5093) | 0.473 | 1 | 0.0128 | -0.0525 | -0.0681 |
| STK11 (GeneID 6794) | 0.405 | 0.998 | -0.0302 | -0.0046 | -0.000606 |
| MAP3K14 (GeneID 9020) | 0.473 | 1 | 0.125 | 0.0107 | -0.0122 |
| DTYMK (GeneID 1841) | 0.473 | 1 | -0.0447 | 0.0184 | 0.0237 |
| NEK2 (GeneID 4751) | 0.473 | 1 | 0.00667 | 0.0497 | -0.00604 |
| LRRK2 (GeneID 120892) | 0.473 | 1 | -0.0598 | 0.0264 | -0.0463 |
| NRK (GeneID 203447) | 0.473 | 1 | 0.0106 | -0.0143 | 0.0492 |
| CDK11B (GeneID 984) | 0.473 | 1 | -0.0179 | -0.0545 | 0.0197 |
| CDK11A (GeneID 728642) | 0.473 | 1 | -0.0919 | 0.0585 | -0.0681 |
| TRIM27 (GeneID 5987) | 0.473 | 1 | -0.0919 | 0.00077 | 0.0229 |
| PKN3 (GeneID 29941) | -0.814 | 0.959 | -0.129 | 0.0265 | -0.0934 |
| GNAS (GeneID 2778) | 0.473 | 1 | 0.133 | 0.0148 | 0.0641 |
| CDC42BPA (GeneID 8476) | 0.473 | 1 | 0.0483 | -0.109 | -0.0566 |
| MAPK10 (GeneID 5602) | 0.473 | 1 | 0.0108 | -0.0169 | 0.0257 |
| BUB1B (GeneID 701) | -0.273 | 0.976 | 0.0772 | 0.00812 | -0.0518 |
| EEF2K (GeneID 29904) | -0.308 | 0.975 | 0.121 | -0.00175 | -0.00275 |
| NME2 (GeneID 4831) | 0.473 | 1 | -0.0919 | -0.104 | -0.0656 |
| HSPB8 (GeneID 26353) | 0.473 | 1 | 0.033 | 0.00865 | -0.00324 |
| EFNA3 (GeneID 1944) | 0.473 | 1 | -0.0919 | -0.015 | -0.0522 |
